Measured values reported in PubChem BioAssay AID488837 (National Center for Advancing Translational Sciences (NCATS), 2010).
The campaign covered roughly 330,000 compounds. About 20 (0.006%) were called active. This list was built around the results that the source calls inconclusive (neither active nor inactive); the mix of calls is not that of the screen. Calls come from the whole dose curve; as a rule, active = well fitted inhibition curve with a large enough effect; inconclusive = small, poorly fitted or top-dose-only effect, or effect the other way; inactive = flat fitted curve, though single readings scatter. Where the call is inconclusive, the potency comes from a doubtful curve fit.

The chains behind the UniProt entries cited, without tags or fusion partners. Where a name states a change or a piece, a line headed by the entry shows the natural chain unless it says otherwise.
UniProt O00167: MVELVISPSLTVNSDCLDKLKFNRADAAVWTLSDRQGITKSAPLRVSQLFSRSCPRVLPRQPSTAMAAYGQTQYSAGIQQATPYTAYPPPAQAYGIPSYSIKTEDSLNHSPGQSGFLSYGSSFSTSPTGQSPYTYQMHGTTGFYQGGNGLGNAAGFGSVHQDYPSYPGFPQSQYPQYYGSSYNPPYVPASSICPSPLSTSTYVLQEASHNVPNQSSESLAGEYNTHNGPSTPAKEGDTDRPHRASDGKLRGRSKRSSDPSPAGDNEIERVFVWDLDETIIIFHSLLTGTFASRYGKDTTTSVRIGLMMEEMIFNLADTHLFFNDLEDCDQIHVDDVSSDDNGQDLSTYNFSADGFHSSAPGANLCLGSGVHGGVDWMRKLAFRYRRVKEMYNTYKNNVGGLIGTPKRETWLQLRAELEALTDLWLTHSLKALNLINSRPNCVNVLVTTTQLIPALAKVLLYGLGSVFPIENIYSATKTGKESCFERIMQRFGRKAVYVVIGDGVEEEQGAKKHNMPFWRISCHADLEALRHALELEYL

These compounds were tested against Protein phosphatase EYA2 (Homo sapiens) (UniProt O00167) (assay: qHTS Assay for Inhibitors of the Phosphatase Activity of Eya2). Details: recombinant Eya2, OMFP fluorescence dephosphorylation (OMFP is methylfluorescein phosphate); activity, negative = inhibition: at 76.9 µM (top of the series) unless noted.
Procedure, shortened: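 Eya2 (0.2 uM) preincubated 10 min at ambient with compound, then OMFP substrate added at 50 uM; 10 min reaction in 50 mM HEPES pH 7.5, 50 mM NaCl, 5 uM MgCl2, 0.05% BSA, 1 mM DTT. Fluorescence read at Ex 485/Em 525 nm.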
% is set by controls: 0 for no effect and ±100 for the full control effect; potency is the fitted concentration of half-maximal effect.

Structure (SMILES) | Potency | activity, negative = inhibition
COc1ccc(C(OC(=O)c2ccco2)C(=O)NC2CCCC2)cc1 (centres undefined) | inconclusive: 100 µM [inhibitor, single point] | –
CCCCCCCCOC(=O)C1=C(C)Nc2nnnn2C1c1cccs1 (centres undefined) | inconclusive: 70.8 µM [inhibitor, single point] | –
S=c1[nH]nc(-c2ccco2)n1/N=C/c1ccccn1 | inactive | –
CCOC(=O)c1[nH]c2ccc(OC)cc2c1NC(=O)OC | inactive | –
COc1ccc(OCc2cc(C(=O)NCCN3CCCC(O)C3)no2)c(Cl)c1 (centres undefined) | inactive | –
CCC(C(=O)Nc1ccccc1F)n1nc(C)c2c(C)n(-c3ccccc3)nc2c1=O (centres undefined) | inconclusive: 31.6 µM [inhibitor, partial curve] | –
CC1CCC(C(C)C)C(OC(=O)Cn2c(-c3ccc(Cl)cc3)[n+](C)c3ccccc32)C1 (centres undefined) | inconclusive: 39.8 µM [inhibitor, partial curve] | –
O=c1[nH]c2ccccc2cc1CN(CC1CCCO1)S(=O)(=O)c1ccc(Cl)cc1 (centres undefined) | inconclusive: 398 µM [inhibitor, partial curve, poor fit] | –
Cc1cc(OCC(=O)Nc2ccc(S(=O)(=O)N3CCN(C)CC3)cc2)ccc1Br | inactive | –
O=c1c2[nH]cnc2n(-c2cccc(F)c2)c(=O)n1Cc1ccccc1 | inconclusive: 355 µM [inhibitor, partial curve, poor fit] | –
CCN(CC)c1ccc(/C=C(/C#N)c2nc3ccccc3[nH]2)c(OC(C)C)c1 | inconclusive: 158 µM [activator, partial curve, poor fit] | –
Cc1nc2ccccc2c(=O)n1/N=C/c1c(O)ccc2ccccc12 | inconclusive: 100 µM [inhibitor, single point] | –
NS(=O)(=O)c1cccc(NC(=O)c2cccnc2Oc2ccccc2)c1 | inconclusive: 70.8 µM [inhibitor, single point] | –
CC[n+]1c(/C=C/c2c[nH]c3ccccc23)ccc2cc(C)ccc21 | inconclusive: 79.4 µM [activator, partial curve] | –
O=C(CC1C(=O)NCCN1Cc1c(F)cccc1Cl)NCCCn1ccnc1 (centres undefined) | inconclusive: 141 µM [inhibitor, partial curve, poor fit] | –
CCOc1ccc(CC(=O)NNC(=S)NC)cc1Br | inconclusive: 112 µM [inhibitor, single point] | –
O=Cc1ccccc1OCc1ccc2c(c1)OCO2 | inconclusive: 100 µM [inhibitor, single point] | –
Cc1oc2c(C)c3oc(=O)c(CCC(=O)O)c(C)c3cc2c1-c1ccccc1 | inconclusive: 25.1 µM [inhibitor, single point] | –
CCOC(=O)N1CCN(c2cc(=O)n(-c3ccc(C)cc3)c(=O)[nH]2)CC1 | inactive | –
CSc1nc(-c2ccc(Cl)cc2Cl)[nH]c(=O)c1C#N | inactive | –
Nc1ccc2nc3c(=O)[nH]c(=S)[nH]c3nc2c1 | inconclusive: 50.1 µM [activator, partial curve, poor fit] | –
O=C(O)c1ccc(CSc2nnc(-c3ccc(Cl)cc3)o2)cc1 | inactive | –
CC[C@@H](CCC=C(C)C)C(=O)N(Cc1ccccc1)c1ccccc1 | inactive | –

Fetched one by one from the list above (five):
Structure (SMILES) | Potency | activity, negative = inhibition
COc1ccc(OCc2cc(C(=O)NCCN3CCCC(O)C3)no2)c(Cl)c1 (centres undefined) | inactive | –
NS(=O)(=O)c1cccc(NC(=O)c2cccnc2Oc2ccccc2)c1 | inconclusive: 70.8 µM [inhibitor, single point] | –
Cc1cc(OCC(=O)Nc2ccc(S(=O)(=O)N3CCN(C)CC3)cc2)ccc1Br | inactive | –
CC1CCC(C(C)C)C(OC(=O)Cn2c(-c3ccc(Cl)cc3)[n+](C)c3ccccc32)C1 (centres undefined) | inconclusive: 39.8 µM [inhibitor, partial curve] | –
CCCCCCCCOC(=O)C1=C(C)Nc2nnnn2C1c1cccs1 (centres undefined) | inconclusive: 70.8 µM [inhibitor, single point] | –

More entries:

Structure (SMILES) | Potency | activity, negative = inhibition
COc1cccc(CNS(=O)(=O)c2cc3c4c(c2)CCC(=O)N4CCC3)c1 | inconclusive: 63.1 µM [inhibitor, single point] | –
CC(C)NC(=O)c1ccc(COc2ccc(C(C)(C)C)cc2)o1 | inconclusive: 100 µM [inhibitor, single point] | –
CCOC(=O)NC(=O)/C(C#N)=C\Nc1sccc1C(=O)OC | – | inconclusive: 82.6% [activator]
O=c1[nH]cnc2c1cnn2Cc1ccccc1Cl | inconclusive: 100 µM [inhibitor, single point] | –
CCc1ccc(NC(=O)C(=O)NCC2CCCO2)cc1 (centres undefined) | inconclusive: 200 µM [inhibitor, partial curve, poor fit] | –
O=C(Nc1ccccc1F)N1CCC(NC(=O)C23CC4CC(CC(C4)C2)C3)CC1 | inconclusive: 89.1 µM [inhibitor, single point] | –
COc1cc(-c2noc(CCCC(=O)NC3CCCCC3)n2)cc(OC)c1OC | inconclusive: 158 µM [inhibitor, partial curve, poor fit] | –
CC1CC(C)(C)NC(=S)N1CC(=O)N1CCN(Cc2ccc3c(c2)OCO3)CC1 (centres undefined) | inconclusive: 112 µM [inhibitor, single point] | –
CS(=O)(=O)N(CC(=O)N1CCCC1)c1cc(C(F)(F)F)ccc1Cl | inconclusive: 25.1 µM [inhibitor, single point] | –
C/C=C/c1ccc(O)c(OC)c1 | inactive | –
NC(=S)N/N=C/c1ccccc1OC(=O)/C=C/c1ccccc1 | inactive | –
C=CCOc1ccc(C(=O)Nc2ccccc2C(=O)N2CCCC2)cc1 | inactive | –
CCCCN(C)CCCNC(=O)c1cc(=O)[nH]c2ccc(S(=O)(=O)N3CCCCC3C)cc12 (centres undefined) | inactive | –
O=C(NCc1n[nH]c(=S)n1-c1ccc(Cl)c(Cl)c1)c1ccc(S(=O)(=O)N2CCCCC2)cc1 | inconclusive: 22.4 µM [inhibitor, single point] | –
c1ccc2[nH]c(-c3cnco3)cc2c1 | inactive | –
CCOC(=O)Cn1nc(C)c(NC(=O)COc2ccc(F)cc2F)c1C | inconclusive: 89.1 µM [inhibitor, single point] | –
CCOC(=O)c1cc(OC(=O)c2ccccc2)n(-c2ccccc2)n1 | inactive | –
Cc1ccccc1OCC(=O)Nc1ccc(N2CCN(C(=O)C(C)C)CC2)c(Cl)c1 | inconclusive: 100 µM [inhibitor, partial curve] | –
O=C(CSc1nnc(-c2ccccc2)n1Cc1ccco1)Nc1ccc(S(=O)(=O)N2CCCC2)cc1 | inconclusive: 22.4 µM [inhibitor, single point] | –
Cn1c(=O)c(NCCc2ccccc2)c2c3c(cccc31)C(=O)c1ccccc1-2 | inconclusive: 20 µM [activator, partial curve] | –
COc1ccc2[nH]c(=O)c(CN(CCc3ccccc3)C(C)=O)cc2c1 | inconclusive: 28.2 µM [inhibitor, partial curve, poor fit] | –
COc1cc(Nc2nc3ccc(Cl)cc3n3cnnc23)cc(OC)c1OC | inconclusive: 79.4 µM [inhibitor, single point] | –
COc1ccc(OC)c(-c2c3cc(O)c(=O)cc-3oc3cc(O)c(O)cc23)c1 | inconclusive: 39.8 µM [activator, partial curve] | –

Structure (SMILES) | Potency | activity, negative = inhibition
COC(=O)c1ccc2c(=O)n(Cc3ccc4c(c3)OCO4)c(=S)[nH]c2c1 | inconclusive: 100 µM [inhibitor, single point] | –
COc1ccc(Cl)cc1NC(=O)C/C(C)=N/NC(=O)c1ccccc1[N+](=O)[O-] | inconclusive: 17.8 µM [inhibitor, single point] | –
COC(=O)c1cc(S(=O)(=O)C(C)C)c(S(C)=O)s1 (centres undefined) | inconclusive: 100 µM [inhibitor, single point] | –
COc1cccc(/C=N/n2c(N)c(S(=O)(=O)c3cccs3)c3nc4ccccc4nc32)c1OC | inactive | –
CCOc1ccc(CNC(=O)c2nnc(CS(=O)(=O)c3ccccc3)o2)cc1OC | inconclusive: 1410 µM [inhibitor, single point] | –
COc1ccc(COC(=O)Nc2c(SC)nsc2SC)cc1 | inconclusive: 224 µM [inhibitor, partial curve, poor fit] | –
O=C(CSc1nnc(-c2ccncc2)o1)Nc1ccccc1Cl | inactive | –
COc1ccc(N2C(=O)CC(S/C(N)=N/N=C(\C)c3cccs3)C2=O)cc1 (centres undefined) | inconclusive: 31.6 µM [inhibitor, partial curve] | –
COc1ccc(OC)c(Nc2nc(NCCC(C)C)nc(N)c2[N+](=O)[O-])c1 | inconclusive: 17.8 µM [inhibitor, single point] | –
O=C(OCCNC(=O)c1cc2ccccc2oc1=O)c1cccnc1 | inactive | –
Cc1cc(C)nc(N2CCC(C(=O)Nc3ccc4c(c3)OCCO4)CC2)n1 | inconclusive: 89.1 µM [inhibitor, single point] | –
Cc1ccccc1Cc1c(C)nc2c(C(=O)NCc3ccco3)cnn2c1C | inactive | –
Cc1ccc2nc(-c3ccccn3)c(NC3CCCC3)n2c1 | inactive | –
Cc1cc(C(=O)N/N=C/c2ccc([N+](=O)[O-])o2)c(C)o1 | inconclusive: 56.2 µM [inhibitor, single point] | –
O=C(COC(=O)c1nc(Cl)ccc1Cl)NC1CCCCCC1 | inactive | –
COc1ccccc1/C=C\C(=O)NCC(=O)N/N=C(\C)Cc1ccccc1 | inconclusive: 89.1 µM [inhibitor, single point] | –
O=C(NC1CCN(Cc2ccc(F)cc2)CC1)c1ccccc1 | inconclusive: 100 µM [inhibitor, single point] | –
O=C(c1sccc1Br)N1CCN(Cc2ccc3c(c2)OCO3)CC1 | inconclusive: 70.8 µM [inhibitor, single point] | –
CC(=O)c1ccc(NC(=O)C2(c3ccccc3)CC2(Cl)Cl)cc1 (centres undefined) | inconclusive: 14.1 µM [inhibitor, partial curve, poor fit] | –
CCOC(=O)CC1C(=O)NCCN1C(=O)c1cccc(OC)c1 (centres undefined) | inconclusive: 100 µM [inhibitor, single point] | –
CCN(CC)C(=O)c1ccc(CS(=O)(=O)Cc2ccccc2)cc1 | inconclusive: 126 µM [inhibitor, single point] | –
Cc1c2n(c3ccccc13)CCC2=O | inconclusive: 112 µM [inhibitor, single point] | –
Cc1ccc(C(=O)Nc2ccc3ccccc3n2)cc1 | inconclusive: 100 µM [inhibitor, single point] | –
